Experimental data taken from article PMC7312248.
These are yes or no findings as the source states them, for the method shown. Some results given as binding are weak or reduced against the parent protein; the word gives no strength.

T1: AtHB12 (Arabidopsis thaliana) (UniProt Q9M276)
T1 sequence: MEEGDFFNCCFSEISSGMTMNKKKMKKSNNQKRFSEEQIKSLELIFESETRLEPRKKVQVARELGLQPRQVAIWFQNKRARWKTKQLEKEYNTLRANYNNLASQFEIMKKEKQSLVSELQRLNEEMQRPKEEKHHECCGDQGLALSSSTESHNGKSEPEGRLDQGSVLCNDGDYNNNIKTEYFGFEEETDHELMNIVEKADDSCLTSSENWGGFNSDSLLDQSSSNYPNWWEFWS

B1: AtHB7 (protein, UniProt P46897 1-258)
chain: MTEGGEYSPAMMSAEPFLTMKKMKKSNHNKNNQRRFSDEQIKSLEMMFESETRLEPRKKVQLARELGLQPRQVAIWFQNKRARWKSKQLETEYNILRQNYDNLASQFESLKKEKQALVSELQRLKEATQKKTQEEERQCSGDQAVVALSSTHHESENEENRRRKPEEVRPEMEMKDDKGHHGVMCDHHDYEDDDNGYSNNIKREYFGGFEEEPDHLMNIVEPADSCLTSSDDWRGFKSDTTTLLDQSSNNYPWRDFWS
B2: AtHB12 (protein, UniProt Q9M276 1-235)
chain: T1 sequence

Legend:
[1] = target: T1, AtHB12 (Arabidopsis thaliana); test: two-hybrid; Matchmaker Gold Yeast Two-Hybrid System (TAKARA); pGBKT7 (BD) and pGADT7 (AD) fusions co-transformed into yeast; growth on medium lacking Leu, Trp, His or lacking Leu, Trp, His, Ade with 3-AT, 30 °C, 3 days
[2] = target: AtHB7 (Arabidopsis thaliana) (UniProt P46897); test: as above

Binder	binding [1]	binding [2]
B1	binds	binds
B2	binds	–
